Like-named read-outs stand apart in the source and are kept apart here. For at least one compound, name, drawing or mass did not settle the structure.
Settings: N = 27; for AUC0-∞, Min, Max / Cmax, Min, Max / T1/2, Min, Max / Tmax, Min, Max: plasma, single 801 mg oral pirfenidone with food
[1] = Ratio of Day 6/7 (during ciprofloxacin dosing) to Day 1/2 (pre-ciprofloxacin dosing), listed as 5-carboxy-pirfenidone
[2] = Study Day 1/2 (Pre-Ciprofloxacin)
[3] = Study Day 6/7 (During Ciprofloxacin 750 mg BID)

O=C(O)c1ccc(=O)n(-c2ccccc2)c1 [5-Carboxy-Pirfenidone, 5-carboxy-pirfenidone]
AUC0-∞ Geometric Mean Ratio (90% Confidence Interval) [1]: 0.96 [0.92-1.00]
Cmax Geometric Mean Ratio (90% Confidence Interval) [1]: 0.62 [0.57-0.66]
AUC0-∞, Min, Max [2]: 22.4, 42.9
Cmax, Min, Max [2]: 4.4, 9.4
T1/2, Min, Max [2]: 1.4, 4.6
Tmax, Min, Max [2]: 1, 3
AUC0-∞, Min, Max [3]: 19.7, 39.4
Cmax, Min, Max [3]: 2.6, 5.4
T1/2, Min, Max [3]: 2.6, 6.1
Tmax, Min, Max [3]: 1, 4

From patent US8778947B2 (Intermune, Inc., priority 2012, dated 2014)
